Test results taken from article PMC4914246.

Sequences of proteins named here, by UniProt entry; tags and fusion partners are left off. A change or cut given only in a name is not applied to a line headed by its entry. Residues count along the entry.
UniProt P15941, residues 1182-1255: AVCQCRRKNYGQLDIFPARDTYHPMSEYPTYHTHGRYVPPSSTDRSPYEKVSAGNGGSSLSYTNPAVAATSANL
UniProt P16070: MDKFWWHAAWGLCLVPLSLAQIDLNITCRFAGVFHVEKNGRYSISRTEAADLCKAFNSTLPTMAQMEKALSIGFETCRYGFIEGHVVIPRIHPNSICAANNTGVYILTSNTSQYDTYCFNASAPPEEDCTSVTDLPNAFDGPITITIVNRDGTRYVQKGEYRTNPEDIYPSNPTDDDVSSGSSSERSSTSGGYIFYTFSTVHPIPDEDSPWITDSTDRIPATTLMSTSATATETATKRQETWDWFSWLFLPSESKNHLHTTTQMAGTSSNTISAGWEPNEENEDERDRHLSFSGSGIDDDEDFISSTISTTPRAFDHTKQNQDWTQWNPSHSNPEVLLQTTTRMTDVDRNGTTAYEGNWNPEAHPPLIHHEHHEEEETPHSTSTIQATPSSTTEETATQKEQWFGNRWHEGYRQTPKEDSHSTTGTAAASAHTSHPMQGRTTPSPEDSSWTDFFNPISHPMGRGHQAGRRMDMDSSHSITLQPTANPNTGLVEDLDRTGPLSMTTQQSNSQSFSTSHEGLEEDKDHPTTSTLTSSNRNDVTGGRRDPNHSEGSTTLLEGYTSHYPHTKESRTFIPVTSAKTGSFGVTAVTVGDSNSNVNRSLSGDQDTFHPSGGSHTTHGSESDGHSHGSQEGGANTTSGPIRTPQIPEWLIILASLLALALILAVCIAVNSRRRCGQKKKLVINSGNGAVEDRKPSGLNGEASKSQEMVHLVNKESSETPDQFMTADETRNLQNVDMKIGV

Columns and labels:
[1] = target: GST-MUC1-CD (MUC1-C cytoplasmic domain) (UniProt P15941); assay: pull-down; GST, GST-MUC1-CD or GST-MUC1-CD fragments incubated with His-CD44-ICD, purified proteins, 2 h at room temperature; adsorbates to glutathione-conjugated beads immunoblotted with anti-CD44; both purified
[2] = target: GST-CD44-ICD (CD44 intracellular domain) (human (RT-PCR from SK-CO-1 cells)) (UniProt P16070); assay: pull-down; GST, GST-CD44-ICD or GST-CD44-ICD fragments incubated with MUC1-CD (GST removed with thrombin), purified proteins, 2 h at room temperature; adsorbates to glutathione-conjugated beads immunoblotted with anti-MUC1-C; both purified

## His-CD44-ICD (CD44 intracellular domain) (from UniProt P16070) (domain or fragment)
[1]
  binding: binds

## MUC1-CD (MUC1-C cytoplasmic domain, GST moiety removed with thrombin) (from UniProt P15941 1182-1255) (domain or fragment)
[2]
  binding: binds

Results are given in words; binding and its absence hold for the method and conditions named. Binding calls can cover weak binding; strength is not graded here.
